No constants are given. Whether binding was seen depends on the method and setting. Binding seen in cells or lysates may run through a third protein. These calls come from enrichment with a bait or labelling near it, and not all partners need be listed. No binding means not detected with the bait.
T1: Transforming growth factor-β (TGFβ)-activated kinase 1 (TAK1), endogenous (human (endogenous in AGS)), O43318
T1 chain: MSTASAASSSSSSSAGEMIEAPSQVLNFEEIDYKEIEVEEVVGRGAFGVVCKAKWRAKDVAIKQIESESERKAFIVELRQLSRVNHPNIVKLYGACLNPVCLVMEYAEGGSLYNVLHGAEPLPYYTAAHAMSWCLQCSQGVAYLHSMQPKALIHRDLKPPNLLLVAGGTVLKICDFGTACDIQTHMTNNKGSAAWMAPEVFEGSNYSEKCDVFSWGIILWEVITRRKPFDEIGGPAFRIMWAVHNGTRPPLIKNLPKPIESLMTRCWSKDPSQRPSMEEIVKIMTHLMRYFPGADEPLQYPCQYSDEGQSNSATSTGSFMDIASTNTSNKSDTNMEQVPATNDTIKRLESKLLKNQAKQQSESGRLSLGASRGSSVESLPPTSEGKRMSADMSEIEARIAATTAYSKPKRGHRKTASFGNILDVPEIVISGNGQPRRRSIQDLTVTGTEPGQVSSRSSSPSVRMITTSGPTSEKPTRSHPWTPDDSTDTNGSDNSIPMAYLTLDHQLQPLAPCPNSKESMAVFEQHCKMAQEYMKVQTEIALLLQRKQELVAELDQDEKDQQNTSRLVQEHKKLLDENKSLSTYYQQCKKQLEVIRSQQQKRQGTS


Molecular target: T1, Transforming growth factor-β …
Assay: affinity purification with mass spectrometry; endogenous TAK1 immunoprecipitated from mock- or TAB1-transfected uninfected AGS cells, on-bead trypsin digestion, LC-MS/MS; isotype antibody IP as filter; proteins found in at least 2 experiments
Conditions: remark: other sources report otherwise

| Binder | binding |
| --- | --- |
| IκB kinase IKKα, O15111 1-745 (enzyme) MERPPGLRPGAGGPWEMRERLGTGGFGNVCLYQHRELDLKIAIKSCRLELSTKNRERWCHEIQIMKKLNHANVVKACDVPEELNILIHDVPLLAMEYCSGGDLRKLLNKPENCCGLKESQILSLLSDIGSGIRYLHENKIIHRDLKPENIVLQDVGGKIIHKIIDLGYAKDVDQGSLCTSFVGTLQYLAPELFENKPYTATVDYWSFGTMVFECIAGYRPFLHHLQPFTWHEKIKKKDPKCIFACEEMSGEVRFSSHLPQPNSLCSLVVEPMENWLQLMLNWDPQQRGGPVDLTLKQPRCFVLMDHILNLKIVHILNMTSAKIISFLLPPDESLHSLQSRIERETGINTGSQELLSETGISLDPRKPASQCVLDGVRGCDSYMVYLFDKSKTVYEGPFASRSLSDCVNYIVQDSKIQLPIIQLRKVWAEAVHYVSGLKEDYSRLFQGQRAAMLSLLRYNANLTKMKNTLISASQQLKAKLEFFHKSIQLDLERYSEQMTYGISSEKMLKAWKEMEEKAIHYAEVGVIGYLEDQIMSLHAEIMELQKSPYGRRQGDLMESLEQRAIDLYKQLKHRPSDHSYSDSTEMVKIIVHTVQSQDRVLKELFGHLSKLLGCKQKIIDLLPKVEVALSNIKEADNTVMFMQGKRQKEIWHLLKIACTQSSARSLVGSSLEGAVTPQTSAWLPPTSAEHDHSLSCVVTPQDGETSAQMIEENLNCLGHLSTIIHEANEEQGNSMMNLDWSWLTE | no binding |
| IκB kinase IKKβ, O14920 1-756 (enzyme) MSWSPSLTTQTCGAWEMKERLGTGGFGNVIRWHNQETGEQIAIKQCRQELSPRNRERWCLEIQIMRRLTHPNVVAARDVPEGMQNLAPNDLPLLAMEYCQGGDLRKYLNQFENCCGLREGAILTLLSDIASALRYLHENRIIHRDLKPENIVLQQGEQRLIHKIIDLGYAKELDQGSLCTSFVGTLQYLAPELLEQQKYTVTVDYWSFGTLAFECITGFRPFLPNWQPVQWHSKVRQKSEVDIVVSEDLNGTVKFSSSLPYPNNLNSVLAERLEKWLQLMLMWHPRQRGTDPTYGPNGCFKALDDILNLKLVHILNMVTGTIHTYPVTEDESLQSLKARIQQDTGIPEEDQELLQEAGLALIPDKPATQCISDGKLNEGHTLDMDLVFLFDNSKITYETQISPRPQPESVSCILQEPKRNLAFFQLRKVWGQVWHSIQTLKEDCNRLQQGQRAAMMNLLRNNSCLSKMKNSMASMSQQLKAKLDFFKTSIQIDLEKYSEQTEFGITSDKLLLAWREMEQAVELCGRENEVKLLVERMMALQTDIVDLQRSPMGRKQGGTLDDLEEQARELYRRLREKPRDQRTEGDSQEMVRLLLQAIQSFEKKVRVIYTQLSKTVVCKQKALELLPKVEEVVSLMNEDEKTVVRLQEKRQKELWNLLKIACSKVRGPVSGSPDSMNASRLSQPGQLMSQPSTASNSLPEPAKKSEELVAEAHNLCTLLENAIQDTVREQDQSFTALDWSWLQTEEEEHSCLEQAS | no binding |

— PMC5865676
